The test concerns the target Parkin (UniProt O60260). Put plainly: co-IP.

The chains behind the UniProt entries cited, without tags or fusion partners.
UniProt O60260: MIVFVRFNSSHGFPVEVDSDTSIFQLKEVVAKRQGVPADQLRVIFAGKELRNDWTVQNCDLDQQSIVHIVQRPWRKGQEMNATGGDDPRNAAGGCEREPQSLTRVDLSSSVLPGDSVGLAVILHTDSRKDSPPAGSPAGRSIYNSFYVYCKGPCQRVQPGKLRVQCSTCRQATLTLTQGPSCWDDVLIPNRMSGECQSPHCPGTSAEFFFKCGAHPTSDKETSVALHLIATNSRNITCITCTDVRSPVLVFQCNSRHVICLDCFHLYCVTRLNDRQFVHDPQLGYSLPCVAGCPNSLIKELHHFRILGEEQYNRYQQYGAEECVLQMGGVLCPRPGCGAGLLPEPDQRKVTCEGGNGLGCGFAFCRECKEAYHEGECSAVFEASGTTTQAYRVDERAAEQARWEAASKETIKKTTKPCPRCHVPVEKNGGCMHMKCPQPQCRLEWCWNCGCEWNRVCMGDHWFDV
UniProt O14939: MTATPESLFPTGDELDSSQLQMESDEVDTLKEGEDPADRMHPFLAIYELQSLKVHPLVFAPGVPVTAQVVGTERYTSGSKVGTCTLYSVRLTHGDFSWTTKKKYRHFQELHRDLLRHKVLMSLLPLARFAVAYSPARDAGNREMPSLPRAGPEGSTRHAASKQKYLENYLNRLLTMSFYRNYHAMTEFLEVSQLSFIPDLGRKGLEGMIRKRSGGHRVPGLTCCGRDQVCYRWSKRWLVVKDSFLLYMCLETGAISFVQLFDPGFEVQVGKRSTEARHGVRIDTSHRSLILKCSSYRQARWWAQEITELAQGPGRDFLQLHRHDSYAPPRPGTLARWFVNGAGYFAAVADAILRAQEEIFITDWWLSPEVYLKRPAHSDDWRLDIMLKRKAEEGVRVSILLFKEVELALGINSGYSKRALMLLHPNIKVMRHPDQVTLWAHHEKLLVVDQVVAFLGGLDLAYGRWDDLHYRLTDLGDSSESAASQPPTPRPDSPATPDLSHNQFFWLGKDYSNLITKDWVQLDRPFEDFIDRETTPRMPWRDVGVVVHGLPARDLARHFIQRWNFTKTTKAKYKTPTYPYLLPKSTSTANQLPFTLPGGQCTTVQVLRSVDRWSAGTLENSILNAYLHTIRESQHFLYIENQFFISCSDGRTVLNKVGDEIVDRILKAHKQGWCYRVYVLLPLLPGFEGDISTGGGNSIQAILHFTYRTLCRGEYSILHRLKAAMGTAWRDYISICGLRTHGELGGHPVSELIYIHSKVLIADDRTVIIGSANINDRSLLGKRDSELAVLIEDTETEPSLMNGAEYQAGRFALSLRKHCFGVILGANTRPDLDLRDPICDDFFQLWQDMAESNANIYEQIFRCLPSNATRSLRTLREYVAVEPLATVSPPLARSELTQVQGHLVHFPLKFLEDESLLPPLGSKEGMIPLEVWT

These are yes or no findings as the source states them, for the method shown. Binding seen in cells or lysates may run through a third protein. Some results given as binding are weak or reduced against the parent protein; the word gives no strength.

With “PLD2 (from UniProt O14939 1-933) (enzyme)”, the binding entry is on record as “binds”.
